The target in one test is T1, Smc4 (S. cerevisiae, UniProt Q12267 1-1418).
T1 sequence (looked up): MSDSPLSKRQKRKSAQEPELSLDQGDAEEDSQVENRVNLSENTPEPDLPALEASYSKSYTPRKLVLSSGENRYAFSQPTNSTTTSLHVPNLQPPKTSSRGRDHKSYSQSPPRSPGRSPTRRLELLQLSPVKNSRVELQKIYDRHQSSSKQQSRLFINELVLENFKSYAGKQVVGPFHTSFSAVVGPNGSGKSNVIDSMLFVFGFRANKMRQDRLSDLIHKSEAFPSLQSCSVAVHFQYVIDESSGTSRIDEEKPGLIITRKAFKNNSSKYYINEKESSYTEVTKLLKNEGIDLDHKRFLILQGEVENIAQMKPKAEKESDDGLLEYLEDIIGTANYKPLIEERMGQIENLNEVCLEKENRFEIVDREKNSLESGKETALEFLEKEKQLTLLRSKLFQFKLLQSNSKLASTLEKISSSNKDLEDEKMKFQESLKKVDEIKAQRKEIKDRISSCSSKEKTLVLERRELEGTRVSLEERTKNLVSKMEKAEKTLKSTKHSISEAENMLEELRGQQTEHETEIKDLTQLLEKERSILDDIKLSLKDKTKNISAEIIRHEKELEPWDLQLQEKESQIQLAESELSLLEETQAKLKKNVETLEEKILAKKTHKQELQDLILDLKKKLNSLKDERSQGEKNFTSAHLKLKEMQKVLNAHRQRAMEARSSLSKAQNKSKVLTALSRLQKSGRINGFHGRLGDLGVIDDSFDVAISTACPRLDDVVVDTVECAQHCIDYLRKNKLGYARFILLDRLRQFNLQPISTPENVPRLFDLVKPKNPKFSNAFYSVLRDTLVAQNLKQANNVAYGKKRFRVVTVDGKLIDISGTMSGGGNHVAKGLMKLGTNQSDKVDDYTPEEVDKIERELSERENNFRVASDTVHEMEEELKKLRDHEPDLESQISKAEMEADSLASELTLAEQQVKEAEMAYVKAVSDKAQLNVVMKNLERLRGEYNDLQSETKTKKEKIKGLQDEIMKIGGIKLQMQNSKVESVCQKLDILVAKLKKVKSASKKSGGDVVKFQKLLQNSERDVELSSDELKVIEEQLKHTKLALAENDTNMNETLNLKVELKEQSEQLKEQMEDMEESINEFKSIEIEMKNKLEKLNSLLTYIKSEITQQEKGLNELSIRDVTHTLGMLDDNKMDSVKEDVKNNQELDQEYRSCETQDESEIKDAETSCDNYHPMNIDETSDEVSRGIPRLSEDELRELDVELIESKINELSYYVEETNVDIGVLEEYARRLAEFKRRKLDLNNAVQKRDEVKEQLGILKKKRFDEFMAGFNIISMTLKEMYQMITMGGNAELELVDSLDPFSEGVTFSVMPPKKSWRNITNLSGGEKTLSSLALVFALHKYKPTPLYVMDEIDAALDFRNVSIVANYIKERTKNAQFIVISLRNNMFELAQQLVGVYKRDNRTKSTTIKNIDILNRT
The experiment in a line: tandem affinity co-purification.

Test [1] has as its target T2, Smc4 E1352Q (S. cerevisiae) (UniProt Q12267).
T2 sequence: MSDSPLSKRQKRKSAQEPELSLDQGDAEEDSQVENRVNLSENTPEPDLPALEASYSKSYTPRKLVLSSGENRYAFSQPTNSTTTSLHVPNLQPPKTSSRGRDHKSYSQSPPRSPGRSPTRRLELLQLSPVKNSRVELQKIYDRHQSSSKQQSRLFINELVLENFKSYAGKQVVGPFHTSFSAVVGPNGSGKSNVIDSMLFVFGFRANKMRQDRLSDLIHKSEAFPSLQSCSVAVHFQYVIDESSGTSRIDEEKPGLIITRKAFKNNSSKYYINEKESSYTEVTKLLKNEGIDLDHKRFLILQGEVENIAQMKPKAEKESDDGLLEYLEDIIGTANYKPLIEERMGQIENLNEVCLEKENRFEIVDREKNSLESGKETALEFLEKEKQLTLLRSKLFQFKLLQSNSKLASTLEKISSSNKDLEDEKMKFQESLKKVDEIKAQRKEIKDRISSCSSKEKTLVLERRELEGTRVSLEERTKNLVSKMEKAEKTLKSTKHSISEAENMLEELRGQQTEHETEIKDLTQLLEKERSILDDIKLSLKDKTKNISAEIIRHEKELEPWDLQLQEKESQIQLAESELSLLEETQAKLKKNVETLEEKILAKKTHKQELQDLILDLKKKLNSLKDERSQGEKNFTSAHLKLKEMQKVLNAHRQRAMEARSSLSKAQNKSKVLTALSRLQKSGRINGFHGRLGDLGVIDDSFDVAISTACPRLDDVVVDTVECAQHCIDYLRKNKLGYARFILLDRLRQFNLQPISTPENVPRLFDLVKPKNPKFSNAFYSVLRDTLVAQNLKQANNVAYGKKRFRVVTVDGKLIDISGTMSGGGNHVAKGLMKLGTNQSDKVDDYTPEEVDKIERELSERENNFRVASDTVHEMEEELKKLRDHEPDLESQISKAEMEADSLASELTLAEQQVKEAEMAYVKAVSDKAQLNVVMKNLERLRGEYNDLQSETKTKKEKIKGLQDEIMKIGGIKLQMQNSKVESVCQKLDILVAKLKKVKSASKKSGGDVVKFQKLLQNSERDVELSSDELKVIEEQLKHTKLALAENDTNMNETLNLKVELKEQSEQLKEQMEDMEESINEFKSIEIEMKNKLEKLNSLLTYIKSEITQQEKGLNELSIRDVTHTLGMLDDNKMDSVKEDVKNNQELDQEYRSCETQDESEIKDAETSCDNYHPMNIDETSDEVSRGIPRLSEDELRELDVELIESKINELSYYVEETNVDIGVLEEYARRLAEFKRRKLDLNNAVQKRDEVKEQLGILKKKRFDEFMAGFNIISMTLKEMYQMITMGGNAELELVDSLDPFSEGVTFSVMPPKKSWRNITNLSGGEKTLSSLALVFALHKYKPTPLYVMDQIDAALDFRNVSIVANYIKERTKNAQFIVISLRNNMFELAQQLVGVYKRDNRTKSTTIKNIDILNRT
The experiment in a line: tandem affinity co-purification.

Results are given in words; binding and its absence hold for the method and conditions named. Some entries that bind do so weakly or less than the wild type.

B1: Ycs4 (protein, UniProt Q06156 1-1176)
chain: MSGFSLSEYLTKFQTTDRESYPRLQDPSRELNVIIDQLAVSPEQIDASPDSLEALIDLCHDFPHLTPKLQTQLSYLISSSLSNLSKDIKANLSSNVNFTEIGGLIPQWKRHLEEYGYLIQVLLTFLQDELHKVSSQSTNLNRSAKNSKNDSANVELFKRDCNQMENLLESITKLLEINLSKIFQTTPEKDLFIGLFTRPLFVLLEIEPVTKVSSLKMFIQRILAMCVKNHGQSSSIQSSLMTNLTYFLHLSVFNAELLKLLNDEYNYPQLTEDILKEISTRVFNAKDTTGPKAISNFLIKLSELSPGIMLRQMNLVITLLNNSSITLRCSVVEACGNIVAELAQDPQTMEHYKQQIAVLIELLEERFQDSNPYVRTKAIQGCSKICDLSSKFNKSKAKFTSLAVRSLQDRSSLVRRNSVKLLSKLLLKHPFKAIHGSQLRLSEWEEYLKGSESQLNSTLKKVESQETLNDTIERSLIEEEVEQDEGQCRTELEGSFNKSAELSRIENEVENINATNTSVLMKLKLMIVYYKDAISFIKEIHKSIELISNLLFSKNRNEVLESMDFLVLADAFDIELSEFGIKKMLHLVWMKGTNDEGTSISVHLIECYKQLFLTAPDSCNMQEKAAHIAKNLINLSIGASIADLASLEQLLGMMYEQKLIDQHVINILWAIYNSASKASMQKEQNVNNRDSEKGFSKEQIHGSIIILGMLSLADNEIALKGLESLLNIGLGAVGLKDLTLCRYSCLALERMVPKRSTIITKAINQELEDVAVKKLYAIIINYTKDNEYYPMCEQALSALFTISSKPDILATDLIREKTMMTFGKPEEEDSILSLEQSSRVVSLSQLLFIVGQVAIKTLVYLEKCEAEFKKRKIEAETRNGKVKNQGADVTNTTQDNGGDKELEMIGGTNEDDFTDAIQFVKENELLFGEKSILGKFCPIVEEIVSNSSRFSDPMLQRTATLCLEKLMCLSSKYCEKSLPLLITVMEKSPDPTIRSNAVLGLGDMAVCFNNLVDENTDYLYRRLHDENLMVQRTCLMTVTFLILAGQVKVKGQLGEMAKCLDNPDQGISDMCRLFFTELASKDNAIYNGFIDIFSNLSSDDLLGKESFKKIIKFLLTFIDKERHQKQLNEKLVGRLRKCETQKQWDDIAFVLNNLPYKNEDVTALLEQGFKVVSAKE
As for B1, the binding entry (with Smc4; in test [1]) was “binds” each time.
